Source: the supplement of paper PMC10849652
The list shows a part of the results.

Chains of the proteins cited; added tags and fusions are not shown. Lines headed by an entry give the natural chain unless they say otherwise; changes in a name come on top.
UniProt Q96AB6: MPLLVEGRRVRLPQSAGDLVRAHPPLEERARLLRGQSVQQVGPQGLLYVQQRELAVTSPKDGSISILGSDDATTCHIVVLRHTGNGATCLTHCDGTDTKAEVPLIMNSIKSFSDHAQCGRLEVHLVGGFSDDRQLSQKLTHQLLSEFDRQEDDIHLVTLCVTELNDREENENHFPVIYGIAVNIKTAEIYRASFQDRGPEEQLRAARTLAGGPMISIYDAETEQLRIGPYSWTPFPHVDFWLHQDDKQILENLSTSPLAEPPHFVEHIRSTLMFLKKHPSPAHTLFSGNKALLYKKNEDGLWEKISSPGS
UniProt Q9UNZ2: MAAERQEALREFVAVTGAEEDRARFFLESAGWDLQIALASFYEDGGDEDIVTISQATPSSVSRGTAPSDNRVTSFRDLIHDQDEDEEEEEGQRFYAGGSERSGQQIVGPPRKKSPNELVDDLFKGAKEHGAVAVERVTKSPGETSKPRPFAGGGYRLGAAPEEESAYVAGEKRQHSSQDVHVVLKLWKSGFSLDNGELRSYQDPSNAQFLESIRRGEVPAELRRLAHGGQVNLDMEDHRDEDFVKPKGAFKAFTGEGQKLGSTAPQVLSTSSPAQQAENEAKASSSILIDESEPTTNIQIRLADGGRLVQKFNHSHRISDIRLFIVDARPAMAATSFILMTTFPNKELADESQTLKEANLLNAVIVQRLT
UniProt Q9NPE3: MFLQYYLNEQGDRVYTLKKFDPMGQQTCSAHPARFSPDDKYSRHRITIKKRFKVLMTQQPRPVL
UniProt Q15155: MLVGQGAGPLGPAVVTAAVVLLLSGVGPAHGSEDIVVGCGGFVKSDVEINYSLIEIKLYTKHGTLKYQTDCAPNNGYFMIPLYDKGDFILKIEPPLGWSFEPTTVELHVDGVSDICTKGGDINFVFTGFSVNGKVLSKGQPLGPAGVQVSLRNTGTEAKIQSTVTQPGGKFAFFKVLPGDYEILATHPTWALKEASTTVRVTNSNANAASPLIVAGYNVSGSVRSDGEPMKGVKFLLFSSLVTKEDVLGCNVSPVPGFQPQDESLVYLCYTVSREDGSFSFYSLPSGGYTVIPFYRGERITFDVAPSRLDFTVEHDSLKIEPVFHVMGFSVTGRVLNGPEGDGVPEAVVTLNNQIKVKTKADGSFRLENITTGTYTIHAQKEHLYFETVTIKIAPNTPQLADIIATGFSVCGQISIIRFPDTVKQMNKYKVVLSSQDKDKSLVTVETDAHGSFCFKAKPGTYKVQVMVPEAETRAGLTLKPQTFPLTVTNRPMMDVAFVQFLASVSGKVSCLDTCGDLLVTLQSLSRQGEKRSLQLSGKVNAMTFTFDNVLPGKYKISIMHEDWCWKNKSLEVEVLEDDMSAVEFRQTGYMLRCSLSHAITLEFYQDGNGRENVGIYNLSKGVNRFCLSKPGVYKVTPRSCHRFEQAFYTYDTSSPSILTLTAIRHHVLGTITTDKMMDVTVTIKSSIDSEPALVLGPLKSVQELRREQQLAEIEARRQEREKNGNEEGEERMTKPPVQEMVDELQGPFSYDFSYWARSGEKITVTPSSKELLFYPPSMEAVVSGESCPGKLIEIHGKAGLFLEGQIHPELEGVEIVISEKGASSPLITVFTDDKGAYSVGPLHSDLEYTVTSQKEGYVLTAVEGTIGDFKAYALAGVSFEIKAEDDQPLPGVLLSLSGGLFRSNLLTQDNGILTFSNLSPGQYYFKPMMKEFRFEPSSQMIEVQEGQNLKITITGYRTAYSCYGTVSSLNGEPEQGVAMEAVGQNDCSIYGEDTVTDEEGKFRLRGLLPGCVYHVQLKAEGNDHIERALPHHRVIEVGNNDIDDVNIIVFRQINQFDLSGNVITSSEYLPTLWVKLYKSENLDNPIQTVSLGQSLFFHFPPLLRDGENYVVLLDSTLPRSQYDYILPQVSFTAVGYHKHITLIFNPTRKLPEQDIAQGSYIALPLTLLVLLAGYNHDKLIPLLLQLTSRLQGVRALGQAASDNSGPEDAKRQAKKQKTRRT
UniProt Q9BRJ7: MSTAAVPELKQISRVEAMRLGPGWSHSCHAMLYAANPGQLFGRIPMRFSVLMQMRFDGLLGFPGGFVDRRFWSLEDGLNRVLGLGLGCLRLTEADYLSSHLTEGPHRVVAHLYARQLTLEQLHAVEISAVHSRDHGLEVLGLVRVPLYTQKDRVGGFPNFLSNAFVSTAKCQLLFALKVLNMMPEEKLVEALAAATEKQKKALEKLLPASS
UniProt P13056: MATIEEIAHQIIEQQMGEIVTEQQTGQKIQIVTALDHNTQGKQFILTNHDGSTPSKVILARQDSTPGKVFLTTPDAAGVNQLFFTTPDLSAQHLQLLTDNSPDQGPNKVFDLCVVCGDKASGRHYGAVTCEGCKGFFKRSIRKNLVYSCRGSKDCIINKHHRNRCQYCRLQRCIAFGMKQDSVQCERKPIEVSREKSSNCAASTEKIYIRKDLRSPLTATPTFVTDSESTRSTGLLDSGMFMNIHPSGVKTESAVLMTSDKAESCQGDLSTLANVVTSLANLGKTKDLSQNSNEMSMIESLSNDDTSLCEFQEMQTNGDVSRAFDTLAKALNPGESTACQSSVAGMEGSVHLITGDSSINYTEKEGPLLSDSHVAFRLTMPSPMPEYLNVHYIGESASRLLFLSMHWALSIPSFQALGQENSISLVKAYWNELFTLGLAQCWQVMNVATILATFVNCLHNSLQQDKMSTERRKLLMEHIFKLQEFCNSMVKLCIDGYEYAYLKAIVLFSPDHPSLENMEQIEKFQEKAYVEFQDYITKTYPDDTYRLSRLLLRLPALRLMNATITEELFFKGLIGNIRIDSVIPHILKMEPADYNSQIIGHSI
UniProt Q9UHK0: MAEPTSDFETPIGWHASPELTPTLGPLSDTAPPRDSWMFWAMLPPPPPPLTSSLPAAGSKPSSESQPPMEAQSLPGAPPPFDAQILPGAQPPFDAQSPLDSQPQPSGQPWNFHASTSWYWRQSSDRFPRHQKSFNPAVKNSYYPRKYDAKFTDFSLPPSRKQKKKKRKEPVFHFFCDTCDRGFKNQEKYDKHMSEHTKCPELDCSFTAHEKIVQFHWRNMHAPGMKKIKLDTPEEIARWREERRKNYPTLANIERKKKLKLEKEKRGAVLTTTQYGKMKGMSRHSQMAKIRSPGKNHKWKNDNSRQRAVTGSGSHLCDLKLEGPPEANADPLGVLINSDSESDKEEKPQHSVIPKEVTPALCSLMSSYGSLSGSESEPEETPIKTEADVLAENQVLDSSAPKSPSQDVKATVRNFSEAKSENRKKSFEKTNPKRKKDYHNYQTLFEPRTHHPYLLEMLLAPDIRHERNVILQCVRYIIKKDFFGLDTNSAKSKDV
UniProt Q96MY1: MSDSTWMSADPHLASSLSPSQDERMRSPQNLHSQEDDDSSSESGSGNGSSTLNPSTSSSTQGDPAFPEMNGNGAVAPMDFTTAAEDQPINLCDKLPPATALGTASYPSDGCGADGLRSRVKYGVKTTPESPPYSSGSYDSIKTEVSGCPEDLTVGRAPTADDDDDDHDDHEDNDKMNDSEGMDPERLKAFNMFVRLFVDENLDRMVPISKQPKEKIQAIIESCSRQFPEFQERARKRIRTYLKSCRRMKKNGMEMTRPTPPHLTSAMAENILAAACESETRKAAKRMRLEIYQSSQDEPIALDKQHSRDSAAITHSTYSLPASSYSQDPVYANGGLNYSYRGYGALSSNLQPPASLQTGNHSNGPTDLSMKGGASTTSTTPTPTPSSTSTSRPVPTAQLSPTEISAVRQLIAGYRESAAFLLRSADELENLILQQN
UniProt P48552: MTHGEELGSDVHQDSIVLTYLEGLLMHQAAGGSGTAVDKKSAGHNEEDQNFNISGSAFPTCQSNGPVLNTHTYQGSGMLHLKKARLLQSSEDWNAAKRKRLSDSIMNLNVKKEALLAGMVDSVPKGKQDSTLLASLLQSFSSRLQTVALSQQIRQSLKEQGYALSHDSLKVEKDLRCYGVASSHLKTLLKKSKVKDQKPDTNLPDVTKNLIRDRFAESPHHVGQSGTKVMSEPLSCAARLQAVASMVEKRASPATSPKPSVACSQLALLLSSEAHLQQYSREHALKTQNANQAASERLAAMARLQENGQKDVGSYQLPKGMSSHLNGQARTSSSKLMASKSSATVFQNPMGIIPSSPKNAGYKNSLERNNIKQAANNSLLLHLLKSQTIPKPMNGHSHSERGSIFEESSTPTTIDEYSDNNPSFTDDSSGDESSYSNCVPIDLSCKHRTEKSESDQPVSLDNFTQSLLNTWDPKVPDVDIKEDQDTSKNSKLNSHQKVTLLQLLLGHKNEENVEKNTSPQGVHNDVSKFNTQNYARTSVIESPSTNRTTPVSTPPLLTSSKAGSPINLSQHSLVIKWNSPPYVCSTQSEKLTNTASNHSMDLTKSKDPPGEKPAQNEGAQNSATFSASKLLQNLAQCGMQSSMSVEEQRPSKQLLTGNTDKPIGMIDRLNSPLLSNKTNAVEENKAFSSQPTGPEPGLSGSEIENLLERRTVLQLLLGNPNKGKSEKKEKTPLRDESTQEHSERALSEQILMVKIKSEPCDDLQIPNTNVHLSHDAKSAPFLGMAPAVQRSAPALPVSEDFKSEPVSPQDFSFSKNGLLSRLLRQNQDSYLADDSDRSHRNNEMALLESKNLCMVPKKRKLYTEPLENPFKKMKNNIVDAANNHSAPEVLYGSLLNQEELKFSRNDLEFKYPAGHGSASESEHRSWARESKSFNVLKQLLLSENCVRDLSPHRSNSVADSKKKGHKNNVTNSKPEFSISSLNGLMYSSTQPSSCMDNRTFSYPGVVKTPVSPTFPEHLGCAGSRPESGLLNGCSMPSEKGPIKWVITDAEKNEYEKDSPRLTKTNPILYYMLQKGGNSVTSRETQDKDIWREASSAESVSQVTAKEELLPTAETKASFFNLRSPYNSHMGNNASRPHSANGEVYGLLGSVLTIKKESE
UniProt Q92686, whole entry, looked up: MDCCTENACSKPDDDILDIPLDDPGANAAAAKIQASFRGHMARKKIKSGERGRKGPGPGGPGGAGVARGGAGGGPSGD
UniProt Q8TB37: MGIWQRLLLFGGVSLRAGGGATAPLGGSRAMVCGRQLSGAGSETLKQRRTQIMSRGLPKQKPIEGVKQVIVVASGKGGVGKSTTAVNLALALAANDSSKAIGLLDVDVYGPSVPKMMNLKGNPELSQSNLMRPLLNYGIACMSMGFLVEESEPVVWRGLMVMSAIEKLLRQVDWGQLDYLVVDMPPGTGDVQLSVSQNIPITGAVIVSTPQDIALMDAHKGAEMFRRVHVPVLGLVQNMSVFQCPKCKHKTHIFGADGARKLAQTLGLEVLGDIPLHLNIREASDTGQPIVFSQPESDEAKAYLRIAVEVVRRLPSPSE
UniProt Q5JPE7: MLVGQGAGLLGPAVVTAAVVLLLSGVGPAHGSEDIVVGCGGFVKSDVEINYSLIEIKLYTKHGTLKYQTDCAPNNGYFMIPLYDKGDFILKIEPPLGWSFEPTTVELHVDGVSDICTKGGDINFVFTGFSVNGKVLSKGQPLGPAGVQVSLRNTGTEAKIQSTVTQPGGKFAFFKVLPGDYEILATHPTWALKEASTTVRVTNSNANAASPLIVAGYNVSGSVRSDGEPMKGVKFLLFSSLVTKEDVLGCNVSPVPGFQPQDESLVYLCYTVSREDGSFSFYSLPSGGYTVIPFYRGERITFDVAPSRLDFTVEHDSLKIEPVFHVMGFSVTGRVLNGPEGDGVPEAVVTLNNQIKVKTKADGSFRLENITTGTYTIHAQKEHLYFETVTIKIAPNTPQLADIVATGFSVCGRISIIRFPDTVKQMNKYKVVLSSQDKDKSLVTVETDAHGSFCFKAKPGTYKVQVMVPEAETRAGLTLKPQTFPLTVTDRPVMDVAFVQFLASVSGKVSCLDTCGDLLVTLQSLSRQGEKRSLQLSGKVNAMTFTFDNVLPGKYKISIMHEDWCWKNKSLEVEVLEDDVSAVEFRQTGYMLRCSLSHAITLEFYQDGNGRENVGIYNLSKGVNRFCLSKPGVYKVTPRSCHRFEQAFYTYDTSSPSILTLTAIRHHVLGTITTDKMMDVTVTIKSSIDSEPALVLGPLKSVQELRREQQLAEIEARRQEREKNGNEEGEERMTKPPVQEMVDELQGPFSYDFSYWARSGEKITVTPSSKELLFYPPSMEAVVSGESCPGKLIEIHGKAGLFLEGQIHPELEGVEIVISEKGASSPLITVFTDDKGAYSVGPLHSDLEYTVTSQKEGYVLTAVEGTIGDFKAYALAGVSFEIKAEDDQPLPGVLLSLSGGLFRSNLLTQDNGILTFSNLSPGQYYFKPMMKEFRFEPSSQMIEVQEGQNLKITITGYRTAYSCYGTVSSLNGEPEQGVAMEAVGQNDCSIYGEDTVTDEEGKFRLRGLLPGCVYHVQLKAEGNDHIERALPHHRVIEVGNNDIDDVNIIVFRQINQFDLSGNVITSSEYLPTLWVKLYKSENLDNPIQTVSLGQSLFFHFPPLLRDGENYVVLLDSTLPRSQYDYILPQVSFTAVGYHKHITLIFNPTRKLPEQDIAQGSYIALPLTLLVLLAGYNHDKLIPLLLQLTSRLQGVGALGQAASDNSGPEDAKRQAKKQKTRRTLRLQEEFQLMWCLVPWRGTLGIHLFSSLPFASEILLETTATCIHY

Assays:
Assay in all cases: log2 fold change, soluble protein after heating vs DMSO (PISA); higher = thermal stabilisation; K562 lysate, 10 uM; active = over 0.2 and 3.5 SD of the protein, either way, in both replicates (recomputed)
[1] = compound: NCC(=O)Nc1ccc(-n2nc(C(F)(F)F)cc2-c2ccc3c(ccc4ccccc43)c2)cc1
In short: (§1)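 Pellets of K562 cells were dounce-homogenised in PBS pH 7.4 with 1 mM MgCl2, and the crude extract was held at 1 mg/mL protein for a 30 min treatment with 10 μM compound. Aliquots were heated for 3 min over 48°C-58°C and pooled before NP-40 was added to 0.5% at 4°C. The supernatant from 21,000xg for 90 min was quantified by TMTpro 16plex LC-MS/MS with channel sums equalised. Values are reported from duplicates as log-two fold change in thermal stability relative to solvent controls.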

vorinostat = compound: O=C(CCCCCCC(=O)Nc1ccccc1)NO [vorinostat]
In short: as §1

silmitasertib = compound: O=C(O)c1ccc2c(c1)nc(Nc1cccc(Cl)c1)c1ccncc12 [silmitasertib]
In short: as §1

[2] = compound: O=C1NC(=O)C(c2cnc3ccccn23)=C1c1cn2c3c(cc(F)cc13)CN(C(=O)N1CCCCC1)CC2
In short: as §1

entospletinib = compound: c1cn2cc(-c3ccc4cn[nH]c4c3)nc(Nc3ccc(N4CCOCC4)cc3)c2n1 [entospletinib]
In short: as §1

Target | log2 fold change [1] | log2 fold change (vorinostat) | log2 fold change (silmitasertib) | log2 fold change [2] | log2 fold change (entospletinib)
NTAN1 (UniProt Q96AB6) | inactive: -0.131 | inactive: 0.161 | inactive: 0.002 | inactive: -0.007 | inactive: -0.323
NMT1 (UniProt P30419) | active: -0.35 | inactive: 0.028 | inactive: -0.03 | inactive: -0.036 | inactive: 0.034
NSUN6 (UniProt Q8TEA1) | inactive: 0.051 | inactive: -0.132 | inactive: 0.003 | inactive: 0.025 | inactive: 0.01
NSFL1C isoform 5 (UniProt Q9UNZ2) | inactive: -0.004 | inactive: 0.158 | inactive: -0.034 | inactive: -0.021 | inactive: 0.028
NUDT9 (UniProt Q9BW91) | inactive: 0.028 | inactive: -0.023 | inactive: -0.023 | inactive: 0.026 | inactive: 0.004
NR2C2 isoform 2 (UniProt P49116) | inactive: -0.024 | inactive: -0.233 | inactive: 0.041 | inactive: 0.008 | inactive: 0.028
NOLC1 isoform 2 (UniProt Q14978) | inactive: -0.001 | inactive: 0.146 | inactive: 0 | inactive: 0.01 | inactive: -0.007
NPM3 (UniProt O75607) | inactive: -0.049 | inactive: -0.012 | inactive: 0.021 | inactive: -0.019 | inactive: -0.037
NPM1 (UniProt P06748) | inactive: -0.008 | inactive: 0.187 | inactive: -0.005 | inactive: 0.035 | inactive: -0.023
NUB1 (UniProt Q9Y5A7) | inactive: -0.004 | active: -0.333 | inactive: -0.027 | inactive: 0.031 | inactive: 0.001
NPC1 (UniProt O15118) | inactive: -0.028 | inactive: 0.121 | inactive: -0.019 | inactive: -0.01 | inactive: -0.013
NPEPPS (UniProt P55786) | inactive: 0.01 | inactive: 0.141 | inactive: -0.006 | inactive: -0.005 | inactive: -0.001
NUBP2 (UniProt Q9Y5Y2) | inactive: -0.006 | inactive: -0.122 | inactive: 0.075 | inactive: 0.024 | inactive: -0.022
NOP10 (UniProt Q9NPE3) | inactive: -0.047 | inactive: 0.14 | inactive: -0.074 | inactive: -0.015 | inactive: -0.015
NUDT22 (UniProt Q9BRQ3) | inactive: 0.011 | inactive: -0.414 | inactive: -0.11 | inactive: 0.104 | inactive: 0.023
NUCB1 (UniProt Q02818) | inactive: 0.022 | inactive: 0.08 | inactive: -0.02 | inactive: -0.015 | inactive: -0.037
NUCKS1 (UniProt Q9H1E3) | inactive: -0.009 | inactive: 0.136 | inactive: -0.019 | inactive: 0.022 | inactive: 0
NPLOC4 (UniProt I3L3I1) |  |  |  | inactive: 0.253 | inactive: -0.146
NR2F2 (UniProt P24468) |  | active: -0.389 | inactive: 0.176 | inactive: 0.017 | 
NOMO1 (UniProt Q15155) |  | inactive: 0.138 | inactive: 0.148 | inactive: 0.018 | inactive: -0.156
NMRK1 (UniProt Q9NWW6) |  |  |  | inactive: 0.009 | 
NUDT16L1 (UniProt Q9BRJ7) | inactive: -0.072 | inactive: -0.13 | inactive: -0.004 | inactive: -0.02 | inactive: -0.019
NR2C1 (UniProt P13056) | inactive: 0.061 |  |  | inactive: -0.111 | 
NOB1 (UniProt Q9ULX3) | inactive: 0.017 | inactive: -0.128 | inactive: 0.048 | inactive: -0.024 | inactive: 0.024
NSD3 (UniProt Q9BZ95) |  |  |  | inactive: 0.034 | inactive: 0.062
NSD1 (UniProt Q96L73) | inactive: -0.1 | inactive: -0.027 | inactive: 0.084 |  | inactive: 0.069
NUDT5 (UniProt C9JYY9) |  | inactive: -0.041 | inactive: 0.129 |  | inactive: 0.01
NR2F6 (UniProt P10588) |  |  |  | inactive: 0.061 | inactive: 0.079

Another view of some results above:
Target	log2 fold change [1]	log2 fold change (vorinostat)	log2 fold change (silmitasertib)	log2 fold change [2]	log2 fold change (entospletinib)
NR2F2 (UniProt P24468)		active: -0.389	inactive: 0.176	inactive: 0.017	
NOMO1 (UniProt Q15155)		inactive: 0.138	inactive: 0.148	inactive: 0.018	inactive: -0.156

The listing continues:

Target | log2 fold change [1] | log2 fold change (vorinostat) | log2 fold change (silmitasertib) | log2 fold change [2] | log2 fold change (entospletinib)
NUFIP1 (UniProt Q9UHK0) |  |  |  | inactive: 0.014 | inactive: 0.118
NOMO3 (UniProt P69849) |  | inactive: 0.033 | inactive: 0.159 | inactive: -0.013 | 
NR3C1 isoform 3 (UniProt P04150) | inactive: -0.124 |  | inactive: 0.05 | inactive: 0.046 | inactive: -0.064
NT5DC3 (UniProt Q86UY8) | inactive: 0.001 | inactive: 0.117 | inactive: 0 | inactive: -0.059 | inactive: -0.026
NOL4L (UniProt Q96MY1) |  | inactive: -0.06 | inactive: 0.036 |  | inactive: -0.053
NOLC1 isoform 3 (UniProt Q14978) |  | inactive: 0.244 | inactive: -0.033 | inactive: 0.036 | inactive: 0.148
NSMCE2 (UniProt Q96MF7) | inactive: -0.052 | inactive: -0.175 | inactive: 0.053 | inactive: -0.041 | inactive: 0.041
NPL (UniProt Q9BXD5) | inactive: -0.039 | inactive: -0.316 | inactive: 0.084 |  | inactive: -0.016
NOCT (UniProt Q9UK39) |  | active: -0.886 | inactive: 0.004 | inactive: -0.036 | inactive: -0.301
NPRL2 (UniProt Q8WTW4) |  |  |  | inactive: 0.154 | 
NOM1 (UniProt Q5C9Z4) | inactive: -0.208 |  |  | inactive: 0.065 | inactive: 0.053
NT5C2 (UniProt Q5JUV3) |  |  |  | inactive: -0.03 | inactive: 0.029
NRIP1 (UniProt P48552) |  | inactive: 0.274 | inactive: 0 | inactive: 0.06 | 
NRIP3 (UniProt Q9NQ35) | inactive: -0.033 |  |  |  | inactive: -0.032
NSA2 (UniProt O95478) | inactive: 0.035 | inactive: -0.073 | inactive: -0.042 |  | inactive: 0.208
NUDT14 (UniProt O95848) |  | inactive: 0.084 | inactive: 0.026 | inactive: -0.116 | 
NME4 (UniProt O00746) |  | inactive: 0.101 | inactive: 0.058 | inactive: -0.11 | inactive: -0.099
NRGN (UniProt Q92686) |  |  |  | inactive: -0.052 | 
NUDT19 (UniProt A8MXV4) | inactive: 0.035 | inactive: 0.119 | inactive: -0.001 | inactive: 0.02 | inactive: 0.04
NR1D1 (UniProt P20393) |  |  |  |  | inactive: 0.273
NUBPL (UniProt Q8TB37) | inactive: 0.356 |  |  |  | inactive: -0.097
NUB1 isoform 2 (UniProt Q9Y5A7) |  |  |  | inactive: -0.068 | 
NTRK1 (UniProt P04629) | inactive: -0.05 |  |  | inactive: -0.083 | inactive: -0.03
NT5DC2 isoform 2 (UniProt Q9H857) | inactive: 0.013 | active: -0.272 | inactive: -0.019 | inactive: 0 | inactive: -0.013
NOMO2 (UniProt Q5JPE7) | inactive: -0.011 | inactive: 0.137 | inactive: 0 | inactive: 0.006 | inactive: -0.003
NUFIP2 (UniProt Q7Z417) | inactive: -0.008 | inactive: -0.08 | inactive: -0.004 | inactive: 0.017 | inactive: 0
NSD2 (UniProt O96028) | inactive: -0.166 |  |  | inactive: 0.12 | inactive: 0.097
